Values quoted from earlier work, collected in patent US10149824B2, “Reverse hexagonal mesophases (HII) and uses thereof” (YISSUM RESEARCH DEVELOPMENT COMPANY OF THE HEBREW …, priority 2009, dated 2018).
Some results were stated once for a whole list of compounds, not compound by compound.

Conditions: cited from earlier work

**Q.** With `N[C@@H](Cc1c[nH]c2ccccc12)C(=O)O` [tryptophan, reference compound] as the compound, how does the “period over which release from the cubic phase occurred” value read?
**A.** 1 to 3 days
